The results in this text go back to article PMC12604043.

These are yes or no findings as the source states them, for the method shown. Binding seen in cells or lysates may run through a third protein. Here binding means that the protein was enriched with, or labelled near, the bait; the list need not be complete.

B1: nucleolar protein 58 (protein, UniProt Q9Y2X3 1-529)
chain: MLVLFETSVGYAIFKVLNEKKLQEVDSLWKEFETPEKANKIVKLKHFEKFQDTAEALAAFTALMEGKINKQLKKVLKKIVKEAHEPLAVADAKLGGVIKEKLNLSCIHSPVVNELMRGIRSQMDGLIPGVEPREMAAMCLGLAHSLSRYRLKFSADKVDTMIVQAISLLDDLDKELNNYIMRCREWYGWHFPELGKIISDNLTYCKCLQKVGDRKNYASAKLSELLPEEVEAEVKAAAEISMGTEVSEEDICNILHLCTQVIEISEYRTQLYEYLQNRMMAIAPNVTVMVGELVGARLIAHAGSLLNLAKHAASTVQILGAEKALFRALKSRRDTPKYGLIYHASLVGQTSPKHKGKISRMLAAKTVLAIRYDAFGEDSSSAMGVENRAKLEARLRTLEDRGIRKISGTGKALAKTEKYEHKSEVKTYDPSGDSTLPTCSKKRKIEQVDKEDEITEKKAKKAKIKVKVEEEEEEKVAEEEETSVKKKKKRGKKKHIKEEPLSEEEPCTSTAIASPEKKKKKKKKRENED
B2: rRNA 2′-O-methyltransferase FTSJ3 (protein, UniProt Q8IY81 1-847)
chain: MGKKGKVGKSRRDKFYHLAKETGYRSRSAFKLIQLNRRFQFLQKARALLDLCAAPGGWLQVAAKFMPVSSLIVGVDLVPIKPLPNVVTLQQDITTERCRQALRKELKTWKVDVVLNDGAPNVGASWVHDAYSQAHLTLMALRLACDFLARGGSFITKVFRSRDYQPLLWIFQQLFRRVQATKPQASRHESAEIFVVCQGFLAPDKVDSKFFDPKFAFKEVEVQAKTVTELVTKKKPKAEGYAEGDLTLYHRTSVTDFLRAANPVDFLSKASEIMVDDEELAQHPATTEDIRVCCQDIRVLGRKELRSLLNWRTKLRRYVAKKLKEQAKALDISLSSGEEDEGDEEDSTAGTTKQPSKEEEEEEEEEQLNQTLAEMKAQEVAELKRKKKKLLREQRKQRERVELKMDLPGVSIADEGETGMFSLSTIRGHQLLEEVTQGDMSAADTFLSDLPRDDIYVSDVEDDGDDTSLDSDLDPEELAGVRGHQGLRDQKRMRLTEVQDDKEEEEEENPLLVPLEEKAVLQEEQANLWFSKGSFAGIEDDADEALEISQAQLLFENRRKGRQQQQKQQLPQTPPSCLKTEIMSPLYQDEAPKGTEASSGTEAATGLEGEEKDGISDSDSSTSSEEEESWEPLRGKKRSRGPKSDDDGFEIVPIEDPAKHRILDPEGLALGAVIASSKKAKRDLIDNSFNRYTFNEDEGELPEWFVQEEKQHRIRQLPVGKKEVEHYRKRWREINARPIKKVAEAKARKKRRMLKRLEQTRKKAEAVVNTVDISEREKVAQLRSLYKKAGLGKEKRHVTYVVAKKGVGRKVRRPAGVRGHFKVVDSRMKKDQRAQQRKEQKKKHKRK
B3: regulator of nonsense transcripts 3B (endogenous, human) (protein, UniProt Q9BZI7 1-483)
chain: MKEEKEHRPKEKRVTLLTPAGATGSGGGTSGDSSKGEDKQDRNKEKKEALSKVVIRRLPPTLTKEQLQEHLQPMPEHDYFEFFSNDTSLYPHMYARAYINFKNQEDIILFRDRFDGYVFLDNKGQEYPAIVEFAPFQKAAKKKTKKRDTKVGTIDDDPEYRKFLESYATDNEKMTSTPETLLEEIEAKNRELIAKKTTPLLSFLKNKQRMREEKREERRRREIERKRQREEERRKWKEEEKRKRKDIEKLKKIDRIPERDKLKDEPKIKVHRFLLQAVNQKNLLKKPEKGDEKELDKREKAKKLDKENLSDERASGQSCTLPKRSDSELKDEKPKRPEDESGRDYREREREYERDQERILRERERLKRQEEERRRQKERYEKEKTFKRKEEEMKKEKDTLRDKGKKAESTESIGSSEKTEKKEEVVKRDRIRNKDRPAMQLYQPGARSRNRLCPPDDSTKSGDSAAERKQESGISHRKEGGEE
B4: protein phosphatase 1G (endogenous, human) (protein, UniProt O15355 1-546)
chain: MGAYLSQPNTVKCSGDGVGAPRLPLPYGFSAMQGWRVSMEDAHNCIPELDSETAMFSVYDGHGGEEVALYCAKYLPDIIKDQKAYKEGKLQKALEDAFLAIDAKLTTEEVIKELAQIAGRPTEDEDEKEKVADEDDVDNEEAALLHEEATMTIEELLTRYGQNCHKGPPHSKSGGGTGEEPGSQGLNGEAGPEDSTRETPSQENGPTAKAYTGFSSNSERGTEAGQVGEPGIPTGEAGPSCSSASDKLPRVAKSKFFEDSEDESDEAEEEEEDSEECSEEEDGYSSEEAENEEDEDDTEEAEEDDEEEEEEMMVPGMEGKEEPGSDSGTTAVVALIRGKQLIVANAGDSRCVVSEAGKALDMSYDHKPEDEVELARIKNAGGKVTMDGRVNGGLNLSRAIGDHFYKRNKNLPPEEQMISALPDIKVLTLTDDHEFMVIACDGIWNVMSSQEVVDFIQSKISQRDENGELRLLSSIVEELLDQCLAPDTSGDGTGCDNMTCIIICFKPRNTAELQPESGKRKLEEVLSTEGAEENGNSDKKKKAKRD
B5: DNA repair protein complementing XP-C cells (protein, UniProt Q01831 1-940)
chain: MARKRAAGGEPRGRELRSQKSKAKSKARREEEEEDAFEDEKPPKKSLLSKVSQGKRKRGCSHPGGSADGPAKKKVAKVTVKSENLKVIKDEALSDGDDLRDFPSDLKKAHHLKRGATMNEDSNEEEEESENDWEEVEELSEPVLGDVRESTAFSRSLLPVKPVEIEIETPEQAKTRERSEKIKLEFETYLRRAMKRFNKGVHEDTHKVHLLCLLANGFYRNNICSQPDLHAIGLSIIPARFTRVLPRDVDTYYLSNLVKWFIGTFTVNAELSASEQDNLQTTLERRFAIYSARDDEELVHIFLLILRALQLLTRLVLSLQPIPLKSATAKGKKPSKERLTADPGGSSETSSQVLENHTKPKTSKGTKQEETFAKGTCRPSAKGKRNKGGRKKRSKPSSSEEDEGPGDKQEKATQRRPHGRERRVASRVSYKEESGSDEAGSGSDFELSSGEASDPSDEDSEPGPPKQRKAPAPQRTKAGSKSASRTHRGSHRKDPSLPAASSSSSSSKRGKKMCSDGEKAEKRSIAGIDQWLEVFCEQEEKWVCVDCVHGVVGQPLTCYKYATKPMTYVVGIDSDGWVRDVTQRYDPVWMTVTRKCRVDAEWWAETLRPYQSPFMDREKKEDLEFQAKHMDQPLPTAIGLYKNHPLYALKRHLLKYEAIYPETAAILGYCRGEAVYSRDCVHTLHSRDTWLKKARVVRLGEVPYKMVKGFSNRARKARLAEPQLREENDLGLFGYWQTEEYQPPVAVDGKVPRNEFGNVYLFLPSMMPIGCVQLNLPNLHRVARKLDIDCVQAITGFDFHGGYSHPVTDGYIVCEEFKDVLLTAWENEQAVIERKEKEKKEKRALGNWKLLAKGLLIRERLKRRYGPKSEAAAPHTDAGGGLSSDEEEGTSSQAEAARILAASWPQNREDEEKQKLKGGPKKTKREKKAAASHLFPFEQL
B6: 28S rRNA (cytosine-C(5))-methyltransferase NOP2 (endogenous, human) (protein, UniProt P46087 1-812)
chain: MGRKLDPTKEKRGPGRKARKQKGAETELVRFLPAVSDENSKRLSSRARKRAAKRRLGSVEAPKTNKSPEAKPLPGKLPKGISAGAVQTAGKKGPQSLFNAPRGKKRPAPGSDEEEEEEDSEEDGMVNHGDLWGSEDDADTVDDYGADSNSEDEEEGEALLPIERAARKQKAREAAAGIQWSEEETEDEEEEKEVTPESGPPKVEEADGGLQINVDEEPFVLPPAGEMEQDAQAPDLQRVHKRIQDIVGILRDFGAQREEGRSRSEYLNRLKKDLAIYYSYGDFLLGKLMDLFPLSELVEFLEANEVPRPVTLRTNTLKTRRRDLAQALINRGVNLDPLGKWSKTGLVVYDSSVPIGATPEYLAGHYMLQGASSMLPVMALAPQEHERILDMCCAPGGKTSYMAQLMKNTGVILANDANAERLKSVVGNLHRLGVTNTIISHYDGRQFPKVVGGFDRVLLDAPCSGTGVISKDPAVKTNKDEKDILRCAHLQKELLLSAIDSVNATSKTGGYLVYCTCSITVEENEWVVDYALKKRNVRLVPTGLDFGQEGFTRFRERRFHPSLRSTRRFYPHTHNMDGFFIAKFKKFSNSIPQSQTGNSETATPTNVDLPQVIPKSENSSQPAKKAKGAAKTKQQLQKQQHPKKASFQKLNGISKGADSELSTVPSVTKTQASSSFQDSSQPAGKAEGIREPKVTGKLKQRSPKLQSSKKVAFLRQNAPPKGTDTQTPAVLSPSKTQATLKPKDHHQPLGRAKGVEKQQLPEQPFEKAAFQKQNDTPKGPQPPTVSPIRSSRPPPAKRKKSQSRGNSQLLLS
B7: H/ACA ribonucleoprotein complex subunit 4 (protein, UniProt O60832 1-514)
chain: MADAEVIILPKKHKKKKERKSLPEEDVAEIQHAEEFLIKPESKVAKLDTSQWPLLLKNFDKLNVRTTHYTPLACGSNPLKREIGDYIRTGFINLDKPSNPSSHEVVAWIRRILRVEKTGHSGTLDPKVTGCLIVCIERATRLVKSQQSAGKEYVGIVRLHNAIEGGTQLSRALETLTGALFQRPPLIAAVKRQLRVRTIYESKMIEYDPERRLGIFWVSCEAGTYIRTLCVHLGLLLGVGGQMQELRRVRSGVMSEKDHMVTMHDVLDAQWLYDNHKDESYLRRVVYPLEKLLTSHKRLVMKDSAVNAICYGAKIMLPGVLRYEDGIEVNQEIVVITTKGEAICMAIALMTTAVISTCDHGIVAKIKRVIMERDTYPRKWGLGPKASQKKLMIKQGLLDKHGKPTDSTPATWKQEYVDYSESAKKEVVAEVVKAPQVVAEAAKTAKRKRESESESDETPPAAPQLIKKEKKKSKKDKKAKAGLESGAEPGDGDSDTTKKKKKKKKAKEVELVSE
B8: fibrillarin (protein, UniProt P22087 1-321)
chain: MKPGFSPRGGGFGGRGGFGDRGGRGGRGGFGGGRGRGGGFRGRGRGGGGGGGGGGGGGRGGGGFHSGGNRGRGRGGKRGNQSGKNVMVEPHRHEGVFICRGKEDALVTKNLVPGESVYGEKRVSISEGDDKIEYRAWNPFRSKLAAAILGGVDQIHIKPGAKVLYLGAASGTTVSHVSDIVGPDGLVYAVEFSHRSGRDLINLAKKRTNIIPVIEDARHPHKYRMLIAMVDVIFADVAQPDQTRIVALNAHTFLRNGGHFVISIKANCIDSTASAEAVFASEVKKMQQENMKPQEQLTLEPYERDHAVVVGVYRPPPKVKN

In this assay the target is EGFP-tagged PRRSV nucleocapsid (N) protein (PRRSV (type 2, strain 01NP1)). Description: affinity purification with mass spectrometry; EGFP-N (control: EGFP) overexpressed in HEK293T, captured from lysate on GFP-trap agarose beads; lysis and wash buffer 50 mM HEPES pH 7.4, 150 mM NaCl, 1 mM EDTA, 10% glycerol, 1% Triton X-100; 2 h at 4 °C, 7 washes; label-free LC-MS/MS, three biological replicates; hits: mean enrichment ratio >= 8, p <= 0.02.
Regarding B1, the binding result is reported as “binds”.

Consider B2, for which the binding entry was “binds”.

Regarding B3, the binding result is “binds”.

As for B4, the binding result is listed as “binds”.

As for B5, the binding result is “binds”.

With B6, the binding result is given as “binds”.

Consider B7, for which the binding entry is given as “binds”.

Consider B8, for which the binding entry was “binds”.
